# In the supplement of paper PMC8728848:
# The list shows a part of the results.
# B1: TAL6-4LysM (Trichoderma atroviride) (protein)
# chain: AADSIPSISPTGIITPTPTQSGMVSNCNKFYDVHSNDGCSAIASSQHVDLSSLYKWNPAIKTDCSGLQASVYVCIGILTTSMSTTSKLPTTTSKPSTTSKPPTGITTPTPTQSGMVKNCNKFYDVHSGDGCSAIASSQKVNLSSFYLWNPAVKTDCSGLQASVFVCIGTLTTSMSTTTSKLPTTTSKPSTTSKPPTGIITPTPTQNGMVKNCNKFYDVHSGDGCSAIASSQKVNLSSFYLWNPAVKTDCSGLQASVFVCVGTATTTTAAGITTPTPTQSGMVSGCNKFYDVHAGDGCSAIASSQKIALSSLYKWNPAVKTDCSGLQASVYICIGVGNAAAARVTGALEQKLISEEDLNSAVDHHHHHH
# What was measured:
# Experiment in all cases: glycan array binding signal (z-score within array); higher = stronger binding
# Settings in all cases: glycan notation: IUPAC condensed, linker removed
# [1] = target: GlcNAc(a1-4)Gal(b1-3)GlcNAc
# Summary of the method: (§1)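 Columns mapping to the same glycan were averaged after glycan names were converted to IUPAC-condensed notation. The data come from 3228 arrays in the Consortium for Functional Glycomics database, limited to those with an available protein sequence. Binding is reported as a within-array Z-score averaged across arrays of one protein sequence and across linkers.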
# [2] = target: GlcNAc(a1-4)Gal(b1-4)GalNAc
# Summary of the method: as §1
# [3] = target: GlcNAc(a1-4)Gal(b1-4)GlcNAc
# Summary of the method: as §1
# [4] = target: GlcNAc(a1-4)Gal(b1-4)GlcNAc(b1-3)Gal(b1-4)Glc
# Summary of the method: as §1
# [5] = target: GlcNAc(a1-4)Gal(b1-4)GlcNAc(b1-3)Gal(b1-4)GlcNAc
# Summary of the method: as §1
# [6] = target: GlcNAc(a1-4)Gal(b1-4)GlcNAc(b1-3)Gal(b1-4)GlcNAc(b1-3)Gal(b1-4)GlcNAc
# Summary of the method: as §1
# [7] = target: GlcNAc(a1-4)Gal(b1-4)GlcNAc(b1-3)Gal(b1-4)[Fuc(a1-3)]GlcNAc(b1-3)Gal(b1-4)[Fuc(a1-3)]GlcNAc
# Summary of the method: as §1
# [8] = target: GlcNAc(a1-6)Gal(b1-4)GlcNAc
# Summary of the method: as §1
# [9] = target: GlcNAc(b1-2)Gal(b1-3)GalNAc
# Summary of the method: as §1
# [10] = target: GlcNAc(b1-2)Man(a1-3)[GlcNAc(b1-2)Man(a1-6)]Man(b1-4)GlcNAc(b1-4)GlcNAc
# Summary of the method: as §1
# [11] = target: GlcNAc(b1-2)Man(a1-3)[GlcNAc(b1-2)Man(a1-6)]Man(b1-4)GlcNAc(b1-4)[Fuc(a1-6)]GlcNAc
# Summary of the method: as §1
# [12] = target: GlcNAc(b1-2)Man(a1-3)[GlcNAc(b1-4)][GlcNAc(b1-2)Man(a1-6)]Man(b1-4)GlcNAc(b1-4)GlcNAc
# Summary of the method: as §1
# [13] = target: GlcNAc(b1-2)Man(a1-3)[GlcNAc(b1-4)][GlcNAc(b1-2)Man(a1-6)]Man(b1-4)GlcNAc(b1-4)[Fuc(a1-6)]GlcNAc
# Summary of the method: as §1
# [14] = target: GlcNAc(b1-2)[GlcNAc(b1-4)]Man(a1-3)[GlcNAc(b1-2)Man(a1-6)]Man(b1-4)GlcNAc(b1-4)GlcNAc
# Summary of the method: as §1
# [15] = target: GlcNAc(b1-2)[GlcNAc(b1-4)]Man(a1-3)[GlcNAc(b1-4)][GlcNAc(b1-2)Man(a1-6)]Man(b1-4)GlcNAc(b1-4)GlcNAc
# Summary of the method: as §1
# [16] = target: GlcNAc(b1-2)[GlcNAc(b1-4)]Man(a1-3)[GlcNAc(b1-4)][GlcNAc(b1-2)[GlcNAc(b1-6)]Man(a1-6)]Man(b1-4)GlcNAc(b1-4)GlcNAc
# Summary of the method: as §1
# [17] = target: GlcNAc(b1-2)[GlcNAc(b1-4)]Man(a1-3)[GlcNAc(b1-4)][GlcNAc(b1-2)[GlcNAc(b1-6)]Man(a1-6)]Man(b1-4)GlcNAc(b1-4)[Fuc(a1-6)]GlcNAc
# Summary of the method: as §1
# [18] = target: GlcNAc(b1-2)[GlcNAc(b1-6)]Man(a1-6)[GlcNAc(b1-2)Man(a1-3)]Man(b1-4)GlcNAc(b1-4)GlcNAc
# Summary of the method: as §1
# [19] = target: GlcNAc(b1-2)[GlcNAc(b1-6)]Man(a1-6)[GlcNAc(b1-2)Man(a1-3)]Man(b1-4)GlcNAc(b1-4)[Fuc(a1-6)]GlcNAc
# Summary of the method: as §1
# [20] = target: GlcNAc(b1-2)[GlcNAc(b1-6)]Man(a1-6)[GlcNAc(b1-4)][GlcNAc(b1-2)Man(a1-3)]Man(b1-4)GlcNAc(b1-4)GlcNAc
# Summary of the method: as §1
# [21] = target: GlcNAc(b1-3)Fuc
# Summary of the method: as §1
# [22] = target: GlcNAc(b1-3)Gal
# Summary of the method: as §1
# [23] = target: GlcNAc(b1-3)Gal(b1-3)GalNAc
# Summary of the method: as §1
# [24] = target: GlcNAc(b1-3)Gal(b1-4)Glc
# Summary of the method: as §1
# [25] = target: GlcNAc(b1-3)Gal(b1-4)GlcNAc
# Summary of the method: as §1
# [26] = target: GlcNAc(b1-3)Gal(b1-4)GlcNAc(b1-2)Man(a1-3)[GlcNAc(b1-3)Gal(b1-4)GlcNAc(b1-2)Man(a1-6)]Man(b1-4)GlcNAc(b1-4)GlcNAc
# Summary of the method: as §1
# [27] = target: GlcNAc(b1-3)Gal(b1-4)GlcNAc(b1-2)Man(a1-3)[GlcNAc(b1-3)Gal(b1-4)GlcNAc(b1-2)Man(a1-6)]Man(b1-4)GlcNAc(b1-4)[Fuc(a1-6)]GlcNAc
# Summary of the method: as §1
# [28] = target: GlcNAc(b1-3)Gal(b1-4)GlcNAc(b1-2)[GlcNAc(b1-3)Gal(b1-4)GlcNAc(b1-6)]Man(a1-6)[GlcNAc(b1-3)Gal(b1-4)GlcNAc(b1-2)Man(a1-3)]Man(b1-4)GlcNAc(b1-4)GlcNAc
# Summary of the method: as §1
# [29] = target: GlcNAc(b1-3)Gal(b1-4)GlcNAc(b1-3)Gal(b1-4)GlcNAc
# Summary of the method: as §1
# [30] = target: GlcNAc(b1-3)Gal(b1-4)GlcNAc(b1-3)Gal(b1-4)GlcNAc(b1-2)Man(a1-3)[GlcNAc(b1-3)Gal(b1-4)GlcNAc(b1-3)Gal(b1-4)GlcNAc(b1-2)Man(a1-6)]Man(b1-4)GlcNAc(b1-4)GlcNAc
# Summary of the method: as §1
# [31] = target: GlcNAc(b1-3)Gal(b1-4)GlcNAc(b1-3)Gal(b1-4)GlcNAc(b1-2)Man(a1-3)[GlcNAc(b1-3)Gal(b1-4)GlcNAc(b1-3)Gal(b1-4)GlcNAc(b1-2)Man(a1-6)]Man(b1-4)GlcNAc(b1-4)[Fuc(a1-6)]GlcNAc
# Summary of the method: as §1
# [32] = target: GlcNAc(b1-3)Gal(b1-4)GlcNAc(b1-3)Gal(b1-4)GlcNAc(b1-2)[GlcNAc(b1-3)Gal(b1-4)GlcNAc(b1-3)Gal(b1-4)GlcNAc(b1-6)]Man(a1-6)[GlcNAc(b1-3)Gal(b1-4)GlcNAc(b1-3)Gal(b1-4)GlcNAc(b1-2)Man(a1-3)]Man(b1-4)GlcNAc(b1-4)[Fuc(a1-6)]GlcNAc
# Summary of the method: as §1
# [33] = target: GlcNAc(b1-3)Gal(b1-4)GlcNAc(b1-3)Gal(b1-4)GlcNAc(b1-3)Gal(b1-4)GlcNAc(b1-2)Man(a1-3)[GlcNAc(b1-3)Gal(b1-4)GlcNAc(b1-3)Gal(b1-4)GlcNAc(b1-3)Gal(b1-4)GlcNAc(b1-2)Man(a1-6)]Man(b1-4)GlcNAc(b1-4)GlcNAc
# Summary of the method: as §1
# [34] = target: GlcNAc(b1-3)Gal(b1-4)GlcNAc(b1-3)Gal(b1-4)GlcNAc(b1-3)Gal(b1-4)GlcNAc(b1-2)Man(a1-3)[GlcNAc(b1-3)Gal(b1-4)GlcNAc(b1-3)Gal(b1-4)GlcNAc(b1-3)Gal(b1-4)GlcNAc(b1-2)Man(a1-6)]Man(b1-4)GlcNAc(b1-4)[Fuc(a1-6)]GlcNAc
# Summary of the method: as §1
# [35] = target: GlcNAc(b1-3)Gal(b1-4)GlcNAc(b1-3)Gal(b1-4)GlcNAc(b1-3)Gal(b1-4)GlcNAc(b1-2)[GlcNAc(b1-3)Gal(b1-4)GlcNAc(b1-3)Gal(b1-4)GlcNAc(b1-3)Gal(b1-4)GlcNAc(b1-6)]Man(a1-6)[GlcNAc(b1-3)Gal(b1-4)GlcNAc(b1-3)Gal(b1-4)GlcNAc(b1-3)Gal(b1-4)GlcNAc(b1-2)Man(a1-3)]Man(b1-4)GlcNAc(b1-4)[Fuc(a1-6)]GlcNAc
# Summary of the method: as §1
# [36] = target: GlcNAc(b1-3)Gal(b1-4)GlcNAc(b1-3)Gal(b1-4)GlcNAc(b1-3)Gal(b1-4)GlcNAc(b1-3)Gal(b1-4)GlcNAc(b1-2)Man(a1-3)[GlcNAc(b1-3)Gal(b1-4)GlcNAc(b1-3)Gal(b1-4)GlcNAc(b1-3)Gal(b1-4)GlcNAc(b1-3)Gal(b1-4)GlcNAc(b1-2)Man(a1-6)]Man(b1-4)GlcNAc(b1-4)GlcNAc
# Summary of the method: as §1
# [37] = target: GlcNAc(b1-3)Gal(b1-4)GlcNAc(b1-3)Gal(b1-4)GlcNAc(b1-3)Gal(b1-4)GlcNAc(b1-3)Gal(b1-4)GlcNAc(b1-2)Man(a1-3)[GlcNAc(b1-3)Gal(b1-4)GlcNAc(b1-3)Gal(b1-4)GlcNAc(b1-3)Gal(b1-4)GlcNAc(b1-3)Gal(b1-4)GlcNAc(b1-2)Man(a1-6)]Man(b1-4)GlcNAc(b1-4)[Fuc(a1-6)]GlcNAc
# Summary of the method: as §1
# [38] = target: GlcNAc(b1-3)Gal(b1-4)GlcNAc(b1-3)Gal(b1-4)GlcNAc(b1-3)Gal(b1-4)GlcNAc(b1-3)Gal(b1-4)GlcNAc(b1-2)[GlcNAc(b1-3)Gal(b1-4)GlcNAc(b1-3)Gal(b1-4)GlcNAc(b1-3)Gal(b1-4)GlcNAc(b1-3)Gal(b1-4)GlcNAc(b1-6)]Man(a1-6)[GlcNAc(b1-3)Gal(b1-4)GlcNAc(b1-3)Gal(b1-4)GlcNAc(b1-3)Gal(b1-4)GlcNAc(b1-3)Gal(b1-4)GlcNAc(b1-2)Man(a1-3)]Man(b1-4)GlcNAc(b1-4)[Fuc(a1-6)]GlcNAc
# Summary of the method: as §1
binder,measurement,setting,value
B1,glycan array binding signal (z-score),[1],-0.119
same,glycan array binding signal (z-score),[2],-0.21
same,glycan array binding signal (z-score),[3],0.134
same,glycan array binding signal (z-score),[4],-0.137
same,glycan array binding signal (z-score),[5],0.336
same,glycan array binding signal (z-score),[6],-0.674
same,glycan array binding signal (z-score),[7],0.09
same,glycan array binding signal (z-score),[8],-1.04
same,glycan array binding signal (z-score),[9],0.737
same,glycan array binding signal (z-score),[10],2.79
same,glycan array binding signal (z-score),[11],0.725
same,glycan array binding signal (z-score),[12],0.425
same,glycan array binding signal (z-score),[13],-0.146
same,glycan array binding signal (z-score),[14],0.841
same,glycan array binding signal (z-score),[15],-0.902
same,glycan array binding signal (z-score),[16],-1.07
same,glycan array binding signal (z-score),[17],-0.55
same,glycan array binding signal (z-score),[18],0.371
same,glycan array binding signal (z-score),[19],-1.51
same,glycan array binding signal (z-score),[20],-0.448
same,glycan array binding signal (z-score),[21],0.388
same,glycan array binding signal (z-score),[22],-0.061
same,glycan array binding signal (z-score),[23],0.173
same,glycan array binding signal (z-score),[24],-1.08
same,glycan array binding signal (z-score),[25],-0.603
same,glycan array binding signal (z-score),[26],-0.267
same,glycan array binding signal (z-score),[27],-0.051
same,glycan array binding signal (z-score),[28],0.403
same,glycan array binding signal (z-score),[29],-0.524
same,glycan array binding signal (z-score),[30],0.029
same,glycan array binding signal (z-score),[31],-0.718
same,glycan array binding signal (z-score),[32],-0.523
same,glycan array binding signal (z-score),[33],0.115
same,glycan array binding signal (z-score),[34],-0.156
same,glycan array binding signal (z-score),[35],-0.597
same,glycan array binding signal (z-score),[36],1.45
same,glycan array binding signal (z-score),[37],-0.015
same,glycan array binding signal (z-score),[38],-0.451

# Rewritten with tabs: part of the list above
binder	measurement	setting	value
B1	glycan array binding signal (z-score)	[1]	-0.119
same	glycan array binding signal (z-score)	[3]	0.134
same	glycan array binding signal (z-score)	[4]	-0.137
same	glycan array binding signal (z-score)	[8]	-1.04
same	glycan array binding signal (z-score)	[14]	0.841
same	glycan array binding signal (z-score)	[17]	-0.55
same	glycan array binding signal (z-score)	[23]	0.173
same	glycan array binding signal (z-score)	[34]	-0.156
same	glycan array binding signal (z-score)	[35]	-0.597
same	glycan array binding signal (z-score)	[36]	1.45
